Experimental data taken from PubChem BioAssay (NCATS).
Inconclusive means that the source gave no clear call. Such entries were picked first, then a sample of the others. For part of these data: Where the call is inconclusive, the potency comes from a doubtful curve fit. Calls of active or inactive are those of the source. The call rests on the fitted dose curve; in most records, active means well fitted curve in the direction sought with a large enough effect; inconclusive means small, poorly fitted or top-dose-only effect, or another doubt; inactive means no such curve, though single readings can be large; an effect the other way counts as inactive or inconclusive.

Columns and labels:
[1] = Quantitative High-Throughput drug screen in 47 multiple myeloma cell lines against the NCATS MIPE library collection: MOLP8_DSMZ cell viability assay (AID 1918977); further: nearly all actives have a fitted effect of over 45% in size
Summary of the method: (§1)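 Readout: median RLU from CellTiter-Glo after 5 min at room temperature. Preceding step was 48 h drug treatment of 500 cells/well at 37 °C, 5% CO2, with DMSO-only and media-only control wells.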

[2] = Quantitative High-Throughput drug screen in 47 multiple myeloma cell lines against the NCATS MIPE library collection: NCIH929_DSMZ cell viability assay (AID 1918978); settings: NCI-H929 myeloma viability, CellTiter-Glo ATP, 48 h; viability, % of control: at 45.8 µM (top of the series); further: nearly all actives have a fitted effect of over 35% in size
Summary of the method: as §1

[3] = Quantitative High-Throughput drug screen in 47 multiple myeloma cell lines against the NCATS MIPE library collection: LP1_DSMZ cell viability assay (AID 1918982); further: nearly all actives have a fitted effect of over 35% in size
Summary of the method: as §1

[4] = Quantitative High-Throughput drug screen in 47 multiple myeloma cell lines against the NCATS MIPE library collection: KMS34_JCRB cell viability assay (AID 1918985); settings: KMS34 myeloma viability, CellTiter-Glo ATP luminescence, 48 h; series mostly up to 45.8 µM; further: nearly all actives have a fitted effect of over 40% in size
Summary of the method: as §1

[5] = Quantitative High-Throughput drug screen in 47 multiple myeloma cell lines against the NCATS MIPE library collection: OCIMY7_PLB cell viability assay (AID 1918987); settings: OCI-MY7 myeloma viability, CellTiter-Glo ATP, 48 h; viability (% of DMSO): at 45.8 µM unless noted; further: nearly all actives have a fitted effect of over 65% in size
Summary of the method: as §1

[6] = Quantitative High-Throughput drug screen in 47 multiple myeloma cell lines against the NCATS MIPE library collection: OCIMY5_PLB cell viability assay (AID 1918988); settings: OCI-MY5 myeloma viability, ATP luminescence, 48 h; viability, % of control: at 45.8 µM; further: nearly all actives have a fitted effect of over 65% in size
Summary of the method: as §1

[7] = Quantitative High-Throughput drug screen in 47 multiple myeloma cell lines against the NCATS MIPE library collection: SKMM1_PLB cell viability assay (AID 1919863); settings: SKMM1 myeloma viability, CellTiter-Glo ATP, 48 h; viability: stronger effect = lower value; further: nearly all actives have a fitted effect of over 35% in size
Summary of the method: as §1

[8] = Quantitative High-Throughput drug screen in 47 multiple myeloma cell lines against the NCATS MIPE library collection: XG1_PLB cell viability assay (AID 1919866); further: nearly all actives have a fitted effect of over 35% in size
Summary of the method: as §1

[9] = Quantitative High-Throughput drug screen in 47 multiple myeloma cell lines against the NCATS MIPE library collection: VP6_DJ cell viability assay (AID 1919867); settings: ATP luminescence, 48 h; viability (% of DMSO): at 45.8 µM; further: nearly all actives have a fitted effect of over 40% in size
Summary of the method: as §1

[10] = Quantitative High-Throughput drug screen in 47 multiple myeloma cell lines against the NCATS MIPE library collection: PCM6_Riken cell viability assay (AID 1919870); settings: CellTiter-Glo ATP, 48 h; viability (% of control): at 45.8 µM; further: nearly all actives have a fitted effect of over 30% in size
Summary of the method: as §1

[11] = Quantitative High-Throughput drug screen in 47 multiple myeloma cell lines against the NCATS MIPE library collection: OCIMY1_PLB cell viability assay (AID 1918979); further: nearly all actives have a fitted effect of over 35% in size
Summary of the method: as §1

[12] = Quantitative High-Throughput drug screen in 47 multiple myeloma cell lines against the NCATS MIPE library collection: MM1S_ATCC cell viability assay (AID 1918980); further: nearly all actives have a fitted effect of over 45% in size
Summary of the method: as §1

[13] = Quantitative High-Throughput drug screen in 47 multiple myeloma cell lines against the NCATS MIPE library collection: MM1R_ATCC cell viability assay (AID 1918981); further: nearly all actives have a fitted effect of over 35% in size
Summary of the method: as §1

[14] = Quantitative High-Throughput drug screen in 47 multiple myeloma cell lines against the NCATS MIPE library collection: KMS28PE_JCRB cell viability assay (AID 1918983); further: nearly all actives have a fitted effect of over 35% in size
Summary of the method: as §1

[15] = Quantitative High-Throughput drug screen in 47 multiple myeloma cell lines against the NCATS MIPE library collection: PE2_PLB cell viability assay (AID 1919869); settings: PE2_PLB myeloma cells viability, ATP luminescence, 48 h; viability (% of control): at 45.8 µM; further: nearly all actives have a fitted effect of over 35% in size
Summary of the method: as §1

[16] = Quantitative High-Throughput drug screen in 47 multiple myeloma cell lines against the NCATS MIPE library collection: OPM1_PLB cell viability assay (AID 1918989); settings: CellTiter-Glo, 48 h; viability (% of control): at 45.8 µM; further: nearly all actives have a fitted effect of over 40% in size
Summary of the method: as §1

[17] = Quantitative High-Throughput drug screen in 47 multiple myeloma cell lines against the NCATS MIPE library collection: U266_ATCC cell viability assay (AID 1919864); further: nearly all actives have a fitted effect of over 35% in size
Summary of the method: as §1

[18] = Quantitative High-Throughput drug screen in 47 multiple myeloma cell lines against the NCATS MIPE library collection: XG6_PLB cell viability assay (AID 1919865); settings: XG6 myeloma viability, CellTiter-Glo ATP luminescence, 48 h; viability (% of control): at 45.8 µM; further: nearly all actives have a fitted effect of over 40% in size
Summary of the method: as §1

[19] = Quantitative High-Throughput drug screen in 47 multiple myeloma cell lines against the NCATS MIPE library collection: UTMC2_PLB cell viability assay (AID 1919868); settings: CellTiter-Glo ATP luminescence, 48 h; series mostly up to 45.8 µM; further: nearly all actives have a fitted effect of over 55% in size
Summary of the method: as §1

[20] = Quantitative High-Throughput drug screen in 47 multiple myeloma cell lines against the NCATS MIPE library collection: L363_DSMZ cell viability assay (AID 1918984); settings: L363 myeloma viability, CellTiter-Glo ATP luminescence, 48 h; viability (% of control): at 45.8 µM; further: nearly all actives have a fitted effect of over 40% in size
Summary of the method: as §1

Measured: Potency
Potency means the concentration at half of the fitted maximal effect.

NNCCc1ccccc1
inactive: [2] | [5]
inconclusive: [1] 4.69 µM [cytotoxic, full curve, poor fit] | [3] 11.8 µM [cytotoxic, partial curve, poor fit] | [4] 23.5 µM [cytotoxic, partial curve] | [6] 5.26 µM [cytotoxic, full curve, poor fit] | [7] 9.35 µM [cytotoxic, full curve] | [8] 9.35 µM [cytotoxic, full curve, poor fit] | [9] 6.62 µM [cytotoxic, full curve, poor fit]

COc1ccc(-c2ccc3c(N4CCOCC4)nc(N4C[C@@H](C)O[C@@H](C)C4)nc3n2)cc1CO
active: [1] 1.05 µM | [2] 0.187 µM | [3] 0.059 µM | [6] 1.48 µM | [10] 1.48 µM
inconclusive: [5] 18.7 µM [cytotoxic, partial curve, poor fit]

CNC(=O)c1ccccc1Nc1nc(Nc2ccc(N3CCOCC3)cc2OC)ncc1Cl
active: [1] 14.8 µM | [12] 0.662 µM | [13] 0.833 µM | [14] 0.935 µM | [15] 1.18 µM
inconclusive: [11] 0.264 µM [cytotoxic, full curve] | [3] 0.296 µM [cytotoxic, full curve] | [7] 9.35 µM [cytotoxic, partial curve, poor fit]

COc1cccc(OC)c1-c1cc(C(=O)NC2(C(=O)O)C3CC4CC(C3)CC2C4)nn1-c1ccnc2cc(Cl)ccc12 (stereo not drawn)
inconclusive: [4] 18.7 µM [cytotoxic, partial curve, poor fit] | [5] 0.0012 µM [rising, full curve, poor fit] | [7] 18.7 µM [cytotoxic, partial curve, poor fit] | [17] 14.8 µM [cytotoxic, partial curve, poor fit] | [10] 0.469 µM [cytotoxic, full curve, poor fit]
inactive: [1] | [2] | [3] | [6] | [16] | [18] | [8] | [9] | [19] | [15]

CCOC(=O)[C@H](CCc1ccccc1)N[C@@H](C)C(=O)N1CCCC1C(=O)O (stereo partly drawn)
inactive: [1] | [2] | [14] | [5]
active: [17] 20.9 µM | [18] 23.5 µM | [8] 23.5 µM
inconclusive: [13] 0.0037 µM [cytotoxic, full curve, poor fit] | [20] 0.001 µM [cytotoxic] | [4] 11.8 µM [rising, single point] | [6] 23.5 µM [cytotoxic, single point] | [7] 0.001 µM [cytotoxic] | [19] 0.296 µM [rising, full curve, poor fit]

Cc1cc([C@@H](C)Nc2ccccc2C(=O)O)c2nc(N3CCOCC3)cc(=O)n2c1
active: [6] 38.2 µM | [16] 17.1 µM | [8] 4.29 µM | [19] 3.82 µM
inconclusive: [1] 10.8 µM [cytotoxic, full curve] | [2] 2.15 µM [cytotoxic, full curve] | [3] 8.55 µM [cytotoxic, partial curve] | [14] 24.1 µM [cytotoxic, partial curve] | [20] 5.4 µM [cytotoxic, full curve] | [10] 19.1 µM [cytotoxic, partial curve]

CN(CC=CC#CC(C)(C)C)Cc1cccc2ccccc12
inconclusive: [1] 0.0023 µM [cytotoxic, full curve, poor fit] | [11] 37.2 µM [cytotoxic, single point] | [13] 37.2 µM [cytotoxic, single point] | [3] 23.5 µM [cytotoxic, single point] | [5] 26.4 µM [cytotoxic, partial curve, poor fit] | [6] 37.2 µM [cytotoxic, partial curve, poor fit] | [16] 33.2 µM [cytotoxic, single point] | [7] 5.26 µM [cytotoxic, partial curve, poor fit] | [17] 33.2 µM [cytotoxic, single point] | [18] 14.8 µM [cytotoxic, partial curve, poor fit] | [8] 26.4 µM [cytotoxic, single point] | [9] 26.4 µM [cytotoxic, single point] | [15] 37.2 µM [cytotoxic, single point] | [10] 37.2 µM [cytotoxic, single point]
inactive: [12] | [14] | [4]
